Source: patent publication US20250109127A1, “METHODS OF USE OF PHENOXYPROPYLAMINE COMPOUNDS TO TREAT DEPRESSION” (Minerva Neurosciences, Inc., priority 2013, published 2025)
Where “and” joins values, the source holds several entries; their conditions need not be identical. Equal values may be shown once. Where a name gives a salt, the structure may show the parent alone. This continues a long series; more values of the same kind are listed elsewhere.

Experiments:
Assay type in all cases: in vivo
[1] = system: DOPAC release in the rat prefrontal cortex; experiment: Microdialysis: DOPAC release in prefrontal cortex after I.P. administration; conditions: hydrochloride; for DOPAC (% of respective basal), individual animal: 0.3 mg/kg I.P., c2-c9 = R#11,12,18,23,29,30,17,24; for DOPAC release, individual animals: 3 mg/kg IP, per animal R#15,16,21,22,27,28,09,10
Description: (§1) The aim of the study was to evaluate, using microdialysis, the effects of an intraperitoneal (I.P.) administration in rats of three different doses of SON-117 on dopamine and its metabolites, serotonin and its metabolite (5-HIAA), and norepinephrine levels in prefrontal cortex.
(§2) Thirty-two adult male Wistar rats were used for the whole study (4 groups of eight animals planned for the study, Table 1).
(§3) Surgery was performed on rats weighing about 300 g at the beginning of the experiments. Rats were anaesthetized with Ketamine (50 mg/kg) & Xylazine (15 mg/kg) by intramuscular administration. The animals were placed in a stereotaxic apparatus in the flat-skull position at a constant setting of −3.3 mm between ear bars and the incisor bar. The animals were treated with a local anesthesic (xylocaine 1%, Astra Zeneca) and an analgesic (Temgesic, from Schering Plough, 0.05 mg/kg, s.c.). A rostrocaudal midline incision was made with a lancet to expose the dorsal skull surface. The “stereotaxic zero” was defined by the Bregma in accordance with Paxinos and Watson's atlas (1986). A hole was drilled in the skull with a drill and the meninges were pierced with a sterile needle to implant a CMA12 guide cannula which later received the dialysis probe.
(§4) Coordinates used for implanting guide cannula in prefrontal cortex from Bregma were anteroposterior 3.7 mm, mediolateral 0.8 mm, and dorsoventral −2 mm (top of the probe was at −5 mm). The guide cannula was fixed to the skull with two stainless steel screws (1.88 mm outside diameter) anchored. An application of dental cement was added. A plastic collar allowed each animal to be tethered to a Swivel assembly of the CMA 120 awake animal system. Following surgery, rats were kept in individual cages and allowed to recover for a minimum of 3-5 days before the experimentation. The rats were handled and put in plastic bowl for 10 min at least every day to habituate the animals to their new environment for the dialysis. An I.P. administration with saline was also performed every day.
(§5) Dialysis probes (CMA12/3 mm, membrane, 20 kD cut-off, Carnegie Medicine, Stockholm, Sweden), were carefully washed before inserting into the guide cannula. The wash was performed with the artificial cerebrospinal fluid (aCSF) medium (NaCl 147 mM, KCl 2.7 mM, CaCl2 1.2 mM, MgCl2 0.85 mM) at room temperature. The dialysis system was then equilibrated at 20° C. at a perfusion rate of 1 μl/min with a Carnegie pump (CMA100). All catheters (FEP tubing, internal volume of 1.2 μl/10 cm, and tubing adaptors) used for microdialysis were treated in the same conditions.
(§6) The probes duly prepared were inserted into the guide cannula and the CMA120 Swivel assembly secured to the animal using a plastic collar. Flow through the dialysis probe with aCSF was maintained at a rate of 1 μl/min during the whole experimentation. The first four fractions (corresponding to 2 hours) were discarded to avoid the effects of parenchymal disturbance and to ensure that an approximate steady-state level was reached. Fractions were then collected over a period of 8.5 h during which time the animals remained quiet. The dialysates were automatically collected with an autosampler (microfraction collector CMA 140, Carnegie Medicin) and stored at −80° C. until analysis. […] Perfusion was then maintained for 7 hours with aCSF. The dialysates (30 μl) were collected into 300 μl vials, transferred into dry ice and then kept frozen (−80° C.) until analysis. Frozen samples were shipped to a partner for analysis. At the end of the microdialysis study, a PBS with colored ink was perfused through the probe in order to visualize the dialyzed area.
(§7) Catecholamine assay: Concentrations of dopamine, DOPAC, HVA, 5-HIAA, 5-HT, and norepinephrin were determined for each sample by HPLC coupled with electrochemical detection.

[2] = system: dopamine release in the rat prefrontal cortex; experiment: Microdialysis: dopamine release in prefrontal cortex after I.P. administration; conditions: hydrochloride; for DOPAMINE (% of respective basal), individual animal: 0.1 mg/kg I.P., c2-c9 = R#13,14,20,19,25,26,31,32; for Dopamine release, individual animals: 0.3 mg/kg I.P., one column per animal R#11,12,18,23,29,30,17,24
Description: as §1, §2, §3, §4, §5, §6, §7

[3] = system: 5-HIAA release in the rat prefrontal cortex; experiment: Microdialysis: 5-HIAA release in prefrontal cortex after I.P. administration; conditions: 0.1 mg/kg I.P., c2-c9 = R#13,14,20,19,25,26,31,32, hydrochloride
Description: as §1, §2, §3, §4, §5, §6, §7

[4] = T-1 h 30-T-1 h (before administration)
[5] = T-1 h-T-30 min (before administration)
[6] = T-30 min-T0 (before administration)

`Cc1nnc(-c2cc3c(OC[C@@H](O)CN4CCC(c5ccc(Cl)c(Cl)c5)CC4)cccc3o2)o1` [SON-117, (S)-1-(4-(3,4-dichlorophenyl)piperidino)-3-(2-(5-methyl-1,3,4-oxadiazol-2-yl)benzo(b)furan-4-yloxy)-2-propanol hydrochloride] was tested, and the “DOPAC (% of respective basal), individual animal” value [1, 4] was 100.35 % of respective basal and 108.62 % of respective basal and 103.45 % of respective basal and 113.40 % of respective basal and 93.25 % of respective basal and 103.88 % of respective basal and 96.73 % of respective basal and 114.26 % of respective basal, the “DOPAC (% of respective basal), individual animal” value [1, 5] was 107.67 % of respective basal and 99.20 % of respective basal and 102.47 % of respective basal and 101.65 % of respective basal and 106.59 % of respective basal and 97.67 % of respective basal and 113.99 % of respective basal and 94.02 % of respective basal and the “DOPAC release, individual animals” value ([1]; T0-T30 min) was 85.79 % of respective basal and 105.77 % of respective basal and 74.34 % of respective basal and 93.11 % of respective basal and 75.08 % of respective basal and 96.85 % of respective basal and 86.07 % of respective basal and 86.69 % of respective basal. The “DOPAC release, individual animals” value ([1]; T6 h 30-T7 h) was 99.49 % of respective basal and 88.80 % of respective basal and 121.72 % of respective basal, the “DOPAC release, individual animals” value [1, 6] was 99.28 % of respective basal and 98.98 % of respective basal and 93.18 % of respective basal and 91.06 % of respective basal and 89.17 % of respective basal and 96.24 % of respective basal and 96.28 % of respective basal and 94.84 % of respective basal and the “DOPAC release, individual animals” value [1, 4] was 98.28 % of respective basal and 101.07 % of respective basal and 105.94 % of respective basal and 105.34 % of respective basal and 104.19 % of respective basal and 108.69 % of respective basal and 89.56 % of respective basal and 98.05 % of respective basal. The “DOPAC release, individual animals” value [1, 5] was 102.48 % of respective basal and 100.03 % of respective basal and 100.88 % of respective basal and 103.59 % of respective basal and 106.64 % of respective basal and 95.09 % of respective basal and 114.18 % of respective basal and 107.12 % of respective basal, the “DOPAMINE (% of respective basal), individual animal” value (“DOPAMINE (% of respective basal)” for short) ([2]; T0-T30 min) was 425.25 % of respective basal and 128.6 % of respective basal and 10.85 % of respective basal and 104.55 % of respective basal and 25.10 % of respective basal and 105.91 % of respective basal and the “DOPAMINE (% of respective basal)” value ([2]; T6 h 30-T7 h) was 74.20 % of respective basal and 156.19 % of respective basal. For the same compound, the “DOPAMINE (% of respective basal)” value [2, 6] was 141.04 % of respective basal and 122.7 % of respective basal and 58.40 % of respective basal and 93.07 % of respective basal and 137.55 % of respective basal and 113.712 % of respective basal and 70.16 % of respective basal and 104.79 % of respective basal, the “DOPAMINE (% of respective basal)” value [2, 4] was 50.85 % of respective basal and 96.94 % of respective basal and 172.62 % of respective basal and 109.45 % of respective basal and 84.95 % of respective basal and 109.18 % of respective basal and 77.23 % of respective basal and 105.99 % of respective basal and the “DOPAMINE (% of respective basal)” value [2, 5] was 104.72 % of respective basal and 77.56 % of respective basal and 58.40 % of respective basal and 93.71 % of respective basal and 71.40 % of respective basal and 84.33 % of respective basal and 151.7 % of respective basal and 89.85 % of respective basal. The “Dopamine release, individual animals” value ([2]; T0-T30 min) was 81.30 % of respective basal and 47.89 % of respective basal and 173.04 % of respective basal and 102.11 % of respective basal and 55.97 % of respective basal and 313.80 % of respective basal and 73.51 % of respective basal and 178.31 % of respective basal, the “Dopamine release, individual animals” value ([2]; T6 h 30-T7 h) was 221.99 % of respective basal and 1040.88 % of respective basal and the “Dopamine release, individual animals” value [2, 6] was 58.26 % of respective basal and 98.44 % of respective basal and 100.20 % of respective basal and 137.38 % of respective basal and 158.31 % of respective basal and 39.00 % of respective basal and 109.91 % of respective basal. For the same compound, the “Dopamine release, individual animals” value [2, 4] was 116.63 % of respective basal and 114.28 % of respective basal and 117.80 % of respective basal and 100.58 % of respective basal and 88.62 % of respective basal and 71.05 % of respective basal and 133.14 % of respective basal and 92.02 % of respective basal, the “Dopamine release, individual animals” value [2, 5] was 128.22 % of respective basal and 86.21 % of respective basal and 90.69 % of respective basal and 98.85 % of respective basal and 82.85 % of respective basal and 74.43 % of respective basal and 130.40 % of respective basal and 97.61 % of respective basal and the “5-HIAA (% of respective basal), individual animal” value (shortened to “5-HIAA (% of respective basal)”) ([3]; T0-T30 min) was 89.00 % of respective basal and 106.36 % of respective basal and 92.77 % of respective basal and 96.09 % of respective basal and 85.06 % of respective basal and 99.4 % of respective basal. For the same compound, the “5-HIAA (% of respective basal)” value ([3]; T6 h 30-T7 h) was 151.69 % of respective basal and 75.07 % of respective basal and 104.47 % of respective basal and 71.87 % of respective basal and the “5-HIAA (% of respective basal)” value [3, 6] was 107.30 % of respective basal and 105.878 % of respective basal and 99.90 % of respective basal and 107.70 % of respective basal and 97.49 % of respective basal and 108.28 % of respective basal and 90.07 % of respective basal and 95.14 % of respective basal.
